From US20240050406A1, “COMPOSITION COMPRISING OXIRACETAM FOR PREVENTING OR TREATING MUSCULAR DISEASE” (KSB TUGEN INC., priority 2021, published 2024)
For at least one compound, name, drawing or mass did not settle the structure.

Tested on: animal model in which muscular atrophy is induced by dexamethasone
Experiment: Comparison with dementia drugs in dexamethasone muscular atrophy model (Experimental Example 5)
Format: in vivo, ICR mice
Text: For an experimental group in the present invention, oxiracetam having a structure of Formula 1 was purchased from Tokyo Chemical Industry (Japan; Product No. 00398, CAS RN:62613-82-5, purity: 96%) and used. Mirtazapine and olanzapine were purchased from Tokyo Chemical Industry (Japan, Product Nos. M2151, 00393, purity: 96%) and used.
As experimental animals, 7-week-old male ICR mice were purchased and used. Until the day of the experiment, general feed (EEGJ30060: Cargill Agri Purina, Seongnam, Korea) and water were sufficiently supplied to the experimental animals, and the animals were acclimated for 1 week under an environment of a temperature of 23±2° C., a humidity of 55±10%, and a light-dark cycle of 12 hours-12 hours and used in the experiment.
After the acclimation period for the experimental animals, to create a muscular atrophy model, the mice were randomly divided into groups of 7 animals, such as a control (vehicle, n=7), a dexamethasone-treated group (n=7), and a drug-administered group (n=7). […]
To measure grip strength, a grip strength test was performed. […] After measurement before drug administration (day 0) and on day 20 after drug administration began, grip strength variation (%) after drug administration began (day 20) with respect to that before drug administration (day 0) was calculated.
The lean body mass of the gastrocnemius muscle (GS) and the lean body mass of the tibialis anterior (TA) for each group were measured every 7 days. […] During photographing, the respiratory rates and body temperatures of the animal models were measured with an animal monitoring system (SA Instruments, USA).
The whole body of the animal model was photographed through dual energy X-ray absorptiometry (DEXA) using iNSiGHT VET DXA (Osteosys, KR), and the lean body mass of each of the gastrocnemius muscle (GS) and the tibialis anterior (TA) was measured and calculated from the two-dimensional images of the gastrocnemius muscle (GS) and the tibialis anterior (TA) by a program using the region of interest (ROI). […]

[1] = oxiracetam 30, mirtazapine 10, olanzapine 10 mg/kg/day oral 21 days + dexamethasone, DEXA every 7 days

## Cc1cc2c(s1)Nc1ccccc1N=C2N1CCN(C)CC1 [olanzapine]
Oxiracetam 30, mirtazapine 10, olanzapine 10 mg/kg/day oral 21 days + dexamethasone 10 mg/kg i.p. day 7-21
  change in grip strength: reduced
[1]
  lean body mass of the gastrocnemius muscle (GS): not recovered but rather reduced
  lean body mass of the tibialis anterior (TA): not recovered but rather reduced
